Test results from patent US20030224992A1, “Transcription factor modulators and uses thereof” (Praecis Pharmaceuticals Inc., priority 2002, published 2003).
For some of these results: Where cells or extracts were used, other partners may take part. Protein sequences can lack the tags named with them. For some of these results: Construct, isoform or probe ends are uncertain for at least one entry.

Assays:
[1] = target: T1, Androgen receptor full length (LNCaP nuclear extract) (Homo sapiens) (UniProt P10275); test: pull-down; conditions: streptavidin bead pulldown, anti-AR western; DHT-treated cells, cold; protein in an extract; label: 5'-biotin on top strand; variant of ARE duplex
T1 sequence (looked up, limits assumed): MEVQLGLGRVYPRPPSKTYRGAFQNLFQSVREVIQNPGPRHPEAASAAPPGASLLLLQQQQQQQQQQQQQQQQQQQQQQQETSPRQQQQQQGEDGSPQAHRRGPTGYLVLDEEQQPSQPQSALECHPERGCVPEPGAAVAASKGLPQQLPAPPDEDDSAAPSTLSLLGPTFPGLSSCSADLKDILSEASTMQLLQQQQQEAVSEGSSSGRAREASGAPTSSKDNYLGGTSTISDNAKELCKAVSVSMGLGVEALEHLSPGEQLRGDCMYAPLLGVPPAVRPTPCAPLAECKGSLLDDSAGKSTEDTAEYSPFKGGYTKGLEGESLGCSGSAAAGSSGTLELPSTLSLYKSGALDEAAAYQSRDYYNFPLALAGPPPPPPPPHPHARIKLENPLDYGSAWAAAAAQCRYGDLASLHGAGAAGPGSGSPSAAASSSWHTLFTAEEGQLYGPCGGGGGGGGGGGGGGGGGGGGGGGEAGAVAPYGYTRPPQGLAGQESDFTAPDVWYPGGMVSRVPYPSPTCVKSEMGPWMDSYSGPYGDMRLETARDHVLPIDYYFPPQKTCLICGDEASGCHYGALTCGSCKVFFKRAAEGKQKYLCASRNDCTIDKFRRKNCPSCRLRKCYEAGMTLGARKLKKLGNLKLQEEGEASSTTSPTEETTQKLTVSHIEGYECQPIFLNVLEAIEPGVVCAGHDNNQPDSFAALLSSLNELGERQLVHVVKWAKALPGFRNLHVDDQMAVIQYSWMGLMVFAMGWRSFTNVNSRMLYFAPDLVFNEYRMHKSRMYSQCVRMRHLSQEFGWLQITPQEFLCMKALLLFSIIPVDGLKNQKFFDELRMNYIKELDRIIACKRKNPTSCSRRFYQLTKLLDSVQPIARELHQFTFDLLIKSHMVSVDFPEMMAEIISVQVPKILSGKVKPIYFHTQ

[2] = target: T1, Androgen receptor full length (LNCaP nuclear extract) (Homo sapiens); test: activity in cells; conditions: decoy at 1, 5 or 20 uM reduced DHT-induced PSA mRNA in electroporated LNCaP cells; protein in an extract
[3] = target: T1, Androgen receptor full length (LNCaP nuclear extract) (Homo sapiens); test: competition with a labelled probe; conditions: competes with biotin-ARE for native AR, protein in an extract

“AGTCTGGTACAGGGTGTTCTTTTTA (double strand) [biotin-ARE duplex]”: binds [1].
For “AGTCTGGTACAGGGTGTTCTTTTTA (double strand) [ARE duplex]”, the “activity on this sequence” value [2] was “active” and the binding result ([3]; similar to ARE-MPS) was “binds”.
“AGTCTGGTACAGGGTGTTCTTTTTA (double strand) [ARE-MPS duplex]”: binds ([3]; membrane permeable peptide Ac-YARAARRAARRGC-NH2 conjugated at 5' of top strand, similar to ARE, variant of ARE duplex).
